Data as given in PubChem BioAssay AID652259 (Drosophila RNAi Screening Center, 2013)
Screen: 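Knock-downs that push a Wingless-driven reporter up or down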 (primary screen). Cell system: Drosophila clone 8 imaginal disc epithelial cells. Knock-down reagent: long dsRNA against Drosophila genes. Treatment: pathway stimulated by co-transfected Wingless expression plasmid. Measured: 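Firefly luciferase from a tcf-site Wingless reporter, measured alongside co-transfected Renilla luciferase that tracks transfection; pathway stimulated by a Wingless plasmid; the firefly-to-Renilla ratio is not deposited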. Reading the numbers: firefly reporter light: higher = more Wg reporter light, before normalisation; Renilla control light: higher = more transfected or surviving cells. Rule for the call: 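Strong candidates differ from their plate mean by at least two out of four per-plate statistical tests; weak candidates meet just one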. Meaning of the calls: active = candidate regulator (raises or lowers reporter); inactive = not a candidate.
In all, the deposit lists about 22,000 reagents; below is an unselected part of those with a known target gene and a result. Of all reagents, 233 (1.1%) got an active call. 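Light values are raw, unnormalised plate reads; the ratio scores behind the reporter calls were not deposited.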 A number with no mark means an inactive call. Reagents against one gene are numbered here. Names joined by + are all predicted targets of the reagent. Reagent sequences are not shown. The record does not give: the amount of reagent, the time to read-out, the dose of the treatment.

Target gene | dsRNA no. | reporter change call, replicate 1 | firefly reporter light, replicate 1 | firefly reporter light, replicate 2 | Renilla control light, replicate 1 | Renilla control light, replicate 2
CG10232 | 1 | – | 11830 | – | 9763 | –
D2hgdh (D-2-hydroxyglutaric acid dehydrogenase) | 1 | – | 4044 | 8681 | 1513 | 3232
Ama (Amalgam) | 1 | – | 2999 | – | 1432 | –
BBS4 (Bardet-Biedl syndrome 4) | 1 | – | 5785 | – | 1517 | –
CG9886 | 1 | – | 15510 | – | 4172 | –
CG8303 | 1 | – | 4352 | – | 2053 | –
Rep (Rab escort protein) | 1 | – | 7517 | – | 3040 | –
CG5885 | 1 | – | 5715 | – | 1920 | –
CG31804 | 1 | – | 6.62e5 | 7.30e5 | 3.03e5 | 89162
Rad60 | 1 | – | 15015 | – | 11792 | –
Jon65Aiv (Jonah 65Aiv) | 1 | – | 2443 | 10762 | 1333 | 4392
HP5 (Heterochromatin protein 5) | 1 | – | 1480 | 7104 | 739 | 2301
CG11694 | 1 | – | 18019 | – | 4568 | –
CG31406 | 1 | – | 3056 | – | 1541 | –
nwk (nervous wreck) | 1 | – | 8163 | – | 3373 | –
nwk (nervous wreck) | 2 | – | 736 | 10345 | 835 | 3152
aPKC (atypical protein kinase C) | 1 | – | 14397 | – | 11985 | –
aPKC (atypical protein kinase C) | 2 | – | 5383 | – | 2301 | –
Ada3 (transcriptional Adaptor 3) | 1 | – | 24404 | – | 9216 | –
Ada3 (transcriptional Adaptor 3) | 2 | – | 20551 | – | 8084 | –
CG30203 | 1 | – | 5046 | – | 2117 | –
CG10339 | 1 | – | 1782 | 6249 | 359 | 1169
Rs1 | 1 | – | 8237 | – | 2598 | –
MAN1 | 1 | – | 11137 | – | 3724 | –
CG5641 | 1 | – | 8979 | – | 2896 | –
Eig71Eg (Ecdysone-induced gene 71Eg) | 1 | – | 8243 | – | 3959 | –
CG42304 + Snup | 1 | – | 20858 | – | 8912 | –
CG42304 + Snup | 2 | – | 4627 | – | 1158 | –
CG42304 + Snup | 3 | – | 7.30e5 | 6.51e5 | 1.73e5 | 296
Phf5a (PHD finger protein 5a) | 1 | – | 3604 | 8209 | 887 | 1211
TrissinR (Trissin receptor) | 1 | – | 3814 | 10274 | 1041 | 2181
TrissinR (Trissin receptor) | 2 | – | 4041 | 16581 | 1121 | 2817
TrissinR (Trissin receptor) | 3 | – | 1568 | 5779 | 1016 | 2890
Smn (survival motor neuron) | 1 | – | 5541 | – | 2232 | –
Ance (Angiotensin converting enzyme) | 1 | – | 7446 | – | 2045 | –
CG33467 | 1 | – | 25092 | – | 21141 | –
CG33467 | 2 | – | 5.17e5 | 5.78e5 | 2.13e5 | 1.62e5

Laid out differently: 10 of the entries above.
CG42304 + Snup #2 — firefly reporter light, replicate 1: 4627; Renilla control light, replicate 1: 1158
CG42304 + Snup #3 — firefly reporter light, replicate 1: 7.30e5; firefly reporter light, replicate 2: 6.51e5; Renilla control light, replicate 1: 1.73e5; Renilla control light, replicate 2: 296
Phf5a (PHD finger protein 5a) — firefly reporter light, replicate 1: 3604; firefly reporter light, replicate 2: 8209; Renilla control light, replicate 1: 887; Renilla control light, replicate 2: 1211
TrissinR (Trissin receptor) #1 — firefly reporter light, replicate 1: 3814; firefly reporter light, replicate 2: 10274; Renilla control light, replicate 1: 1041; Renilla control light, replicate 2: 2181
TrissinR (Trissin receptor) #2 — firefly reporter light, replicate 1: 4041; firefly reporter light, replicate 2: 16581; Renilla control light, replicate 1: 1121; Renilla control light, replicate 2: 2817
TrissinR (Trissin receptor) #3 — firefly reporter light, replicate 1: 1568; firefly reporter light, replicate 2: 5779; Renilla control light, replicate 1: 1016; Renilla control light, replicate 2: 2890
Smn (survival motor neuron) — firefly reporter light, replicate 1: 5541; Renilla control light, replicate 1: 2232
Ance (Angiotensin converting enzyme) — firefly reporter light, replicate 1: 7446; Renilla control light, replicate 1: 2045
CG33467 #1 — firefly reporter light, replicate 1: 25092; Renilla control light, replicate 1: 21141
CG33467 #2 — firefly reporter light, replicate 1: 5.17e5; firefly reporter light, replicate 2: 5.78e5; Renilla control light, replicate 1: 2.13e5; Renilla control light, replicate 2: 1.62e5

The listing continues:
Target gene | dsRNA no. | reporter change call, replicate 1 | firefly reporter light, replicate 1 | firefly reporter light, replicate 2 | Renilla control light, replicate 1 | Renilla control light, replicate 2
CG11893 | 1 | – | 29078 | – | 20324 | –
Ubi-p63E (Ubiquitin-63E) | 1 | – | 7.59e5 | 7.72e5 | 2.98e5 | 3.11e5
sub (subito) | 1 | – | 15696 | – | 3991 | –
CG6931 | 1 | – | 8039 | – | 3446 | –
eIF3h (eukaryotic translation initiation factor 3 subunit h) | 1 | – | 17804 | – | 3976 | –
qvr (quiver) | 1 | – | 16354 | – | 13412 | –
fbp (fructose-1,6-bisphosphatase) | 1 | – | 16642 | – | 5341 | –
lectin-24Db | 1 | – | 15908 | – | 7250 | –
CG3764 | 1 | – | 4320 | – | 1672 | –
Prm (Paramyosin) | 1 | – | 4098 | – | 1669 | –
Prm (Paramyosin) | 2 | – | 3261 | – | 1194 | –
Prm (Paramyosin) | 3 | – | 9008 | – | 3904 | –
png (pan gu) | 1 | – | 13878 | – | 14785 | –
CG2247 | 1 | – | 2104 | 9173 | 867 | 3140
Dbp73D (Dead box protein 73D) | 1 | – | 4950 | – | 1267 | –
CG31797 | 1 | – | 1960 | 7084 | 650 | 2492
CG31797 | 2 | – | 3889 | 9818 | 849 | 3171
Charon | 1 | – | 6884 | – | 3920 | –
CG42521 | 1 | – | 10627 | – | 4566 | –
alphaSnap (alpha Soluble NSF attachment protein) | 1 | – | 3880 | – | 1317 | –
CG4882 | 1 | – | 3191 | 5783 | 827 | 2128
Taf9 (TBP-associated factor 9) | 1 | Wg reporter activity raised (active) | 17728 | 26864 | 672 | 2008
betaGlu (beta glucuronidase) | 1 | – | 2541 | 4384 | 789 | 1378
mub (mushroom-body expressed) | 1 | – | 5997 | – | 3152 | –
CG17930 | 1 | – | 1927 | 5705 | 1040 | 1627
CG14125 | 1 | – | 11431 | – | 2985 | –
RYa-R (RYamide receptor) | 1 | – | 2535 | 8165 | 1073 | 2006
Oseg1 (Outer segment 1) | 1 | – | 4432 | – | 2214 | –
Cul3 (Cullin 3) | 1 | – | 5911 | – | 2193 | –
Cul3 (Cullin 3) | 2 | – | 5.03e5 | 6.29e5 | 2.66e5 | 2.09e5
Josd (Josephin domain containing) | 1 | – | 27883 | – | 11240 | –
CG31213 | 1 | – | 18888 | – | 4245 | –
CG31213 | 2 | – | 18490 | – | 4154 | –
Lhr (Lethal hybrid rescue) | 1 | – | 16486 | – | 4928 | –
CG8679 | 1 | – | 3172 | 6548 | 887 | 2817
CG32806 | 1 | Wg reporter activity raised | 8.42e5 | 8.21e5 | 5.08e5 | 3.62e5
Wee1 (Wee1 kinase) | 1 | – | 3496 | 7706 | 1106 | 1418
Amun | 1 | Wg reporter activity lowered | 15749 | – | 9760 | –
DIP-epsilon (Dpr-interacting protein epsilon) | 1 | – | 29596 | 9.66e5 | 14531 | 5.50e5
DIP-epsilon (Dpr-interacting protein epsilon) | 2 | – | 3463 | 10551 | 272 | 3218
lds (lodestar) | 1 | – | 14872 | – | 3851 | –
Gdh (Glutamate dehydrogenase) | 1 | – | 1277 | 3729 | 790 | 1632
lncRNA:CR32027 (long non-coding RNA:CR32027) | 1 | – | 4235 | – | 1750 | –
CG4983 | 1 | – | 3456 | – | 1715 | –
CG5727 | 1 | – | 12445 | – | 2957 | –
yellow-g | 1 | – | 6103 | – | 2779 | –
CG17329 | 1 | – | 2665 | 5706 | 866 | 2536
geko | 1 | – | 8336 | – | 2800 | –
geko | 2 | – | 7686 | – | 3600 | –
swm (second mitotic wave missing) | 1 | – | 17749 | – | 6072 | –
swm (second mitotic wave missing) | 2 | – | 3.96e5 | 4.08e5 | 1.26e5 | 1.33e5
CR44003 + CG44002 | 1 | – | 8630 | – | 3600 | –
CR44003 + CG44002 | 2 | – | 2324 | 7632 | 720 | 1651
CG33640 | 1 | – | 20375 | – | 9268 | –
bor (belphegor) | 1 | – | 17290 | – | 4141 | –
CG8617 | 1 | – | 5072 | – | 1435 | –
